The values below come from publication PMC3737563, “Investigation of DNA sequence recognition by a streptomycete MarR family transcriptional regulator through surface plasmon resonance and X-ray crystallography” (Nucleic Acids Research, 2013).

For at least one entry, the source does not settle the construct or the ends of the probe. The comparison behind a weaker result is the experiment's own reference, which may not be listed here. At least one verdict rests on a figure or table, not on a statement of the authors. Protein sequences can lack the tags named with them. Whether high values mean tight binding is not given here for every scale.

In one series the target is T1, SCO3205 (MarR family regulator) (Streptomyces coelicolor) (UniProt Q9KYU1).
T1 sequence (looked up): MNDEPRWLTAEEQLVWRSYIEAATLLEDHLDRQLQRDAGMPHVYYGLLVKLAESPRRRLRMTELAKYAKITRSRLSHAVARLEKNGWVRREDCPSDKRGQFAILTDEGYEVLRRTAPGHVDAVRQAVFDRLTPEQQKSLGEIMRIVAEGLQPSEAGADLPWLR
Put plainly: SPR. The settings on record: 50 nM SCO3205; SPR (ReDCaT, Biacore T200) in HBS-EP+: 10 mM HEPES pH 7.4, 150 mM NaCl, 3 mM EDTA, 0.05% P20, 20°C; recombinant protein; residues 1-163; protein details: N-terminal His tag plus TEV site, not removed; label: biotin linker S6 hybridised to overhang. Background: SPR reads the build-up and loss of mass on a sensor chip optically.
In the case of “CAATACATGAACTCTCAATCTTTA / TAAAGATTGAGAGTTCATGTATTGCCTACCCTACGTCCTCCTGC [O3204_T6A]”, the binding result is given as “binds more weakly”.

As to “CAATACTTGAACTCTCTATCTTTA / TAAAGATAGAGAGTTCAAGTATTGCCTACCCTACGTCCTCCTGC [O3204_A16T]”, the binding result was “binds more weakly”.

For the sequence “CAATACTCGAACTCTCAATCTTTA / TAAAGATTGAGAGTTCGAGTATTGCCTACCCTACGTCCTCCTGC [O3204_T7C]”, the binding result is on record as “binds more weakly”.

For the sequence “CAATACTTGAACTCTCCATCTTTA / TAAAGATGGAGAGTTCAAGTATTGCCTACCCTACGTCCTCCTGC [O3204_A16C]”, the binding result is “binds more weakly”.

On to “CAATACTAGAACTCTCAATCTTTA / TAAAGATTGAGAGTTCTAGTATTGCCTACCCTACGTCCTCCTGC [O3204_T7A]”, for which the binding result is listed as “binds more weakly”.

Take “CAATACTTGAACTCTCATTCTTTA / TAAAGAATGAGAGTTCAAGTATTGCCTACCCTACGTCCTCCTGC [O3204_A17T]”: the binding result is recorded as “binds more weakly”.

In the case of “CAATACTTGAACTCTCAATCTTTA / TAAAGATTGAGAGTTCAAGTATTGCCTACCCTACGTCCTCCTGC [O3204_24mer / O3204_WT]”, the binding signal (% of theoretical Rmax) is 98.6.

With “CAATACTTGAACTCCCAATCTTTA / TAAAGATTGGGAGTTCAAGTATTGCCTACCCTACGTCCTCCTGC [O3204_T14C]”, the binding result is reported as “binds more weakly”.

The series is the same for the next values; noted with them: 100 nM SCO3205, dissociates faster than O3204; SPR (ReDCaT, Biacore T200) in HBS-EP+: 10 mM HEPES pH 7.4, 150 mM NaCl, 3 mM EDTA, 0.05% P20, 20°C; recombinant protein; residues 1-163; protein details: N-terminal His tag plus TEV site, not removed; label: biotin linker S6 hybridised to overhang.
As for “AAGAAGTTCAAGCTTCAACCAAAA / TTTTGGTTGAAGCTTGAACTTCTTCCTACCCTACGTCCTCCTGC [O5049_24mer]”, the binding signal (% of theoretical Rmax) was determined as 100.

Staying with this series, now noted: 100 nM SCO3205, fully lost during dissociation; SPR (ReDCaT, Biacore T200) in HBS-EP+: 10 mM HEPES pH 7.4, 150 mM NaCl, 3 mM EDTA, 0.05% P20, 20°C; recombinant protein; residues 1-163; protein details: N-terminal His tag plus TEV site, not removed; label: biotin linker S6 hybridised to overhang.
For “GACCTGTTCAAAGCTCAAGCAGAA / TTCTGCTTGAGCTTTGAACAGGTCCCTACCCTACGTCCTCCTGC [O7815_24mer]”, the binding signal (% of theoretical Rmax) stood at 50.

Still in this series, the particulars now being: 100 nM SCO3205; SPR (ReDCaT, Biacore T200) in HBS-EP+: 10 mM HEPES pH 7.4, 150 mM NaCl, 3 mM EDTA, 0.05% P20, 20°C; recombinant protein; residues 1-163; protein details: N-terminal His tag plus TEV site, not removed; label: biotin linker S6 hybridised to overhang.
As to “TACTTGAACTCTCAATCTTTACGTGCCGT / ACGGCACGTAAAGATTGAGAGTTCAAGTACCTACCCTACGTCCTCCTGC [fragment_6]”, the binding signal (% of theoretical Rmax) amounted to 100.

With “ACTCCAATACTTGAACTCTCAATCTTTAC / GTAAAGATTGAGAGTTCAAGTATTGGAGTCCTACCCTACGTCCTCCTGC [fragment_5]”, the binding signal (% of theoretical Rmax) came out at 100.

Turning to “ACGCCGATTTTGTTTAATGTTCAAGGAAC / GTTCCTTGAACATTAAACAAAATCGGCGTCCTACCCTACGTCCTCCTGC [fragment_11]”, the binding signal (% of theoretical Rmax) is 100.

Turning to “TTGATGTTGAATGTTCAACCAGTC / GACTGGTTGAACATTCAACATCAACCTACCCTACGTCCTCCTGC [O5533_24mer]”, the binding signal (% of theoretical Rmax) is 100.

Staying with this series, now noted: LH boundary, comparable to 36-mer; SPR (ReDCaT, Biacore T200) in HBS-EP+: 10 mM HEPES pH 7.4, 150 mM NaCl, 3 mM EDTA, 0.05% P20, 20°C; recombinant protein; residues 1-163; protein details: N-terminal His tag plus TEV site, not removed; label: biotin linker S6 hybridised to overhang.
As to “ACGGCACGTAAAGATTGAGAGTTCAAGTATTG / CAATACTTGAACTCTCAATCTTTACGTGCCGTCCTACCCTACGTCCTCCTGC [O3204_LH_Δ4]”, the binding result was “binds”.

The series is the same for the next values; noted with them: LH boundary; SPR (ReDCaT, Biacore T200) in HBS-EP+: 10 mM HEPES pH 7.4, 150 mM NaCl, 3 mM EDTA, 0.05% P20, 20°C; recombinant protein; residues 1-163; protein details: N-terminal His tag plus TEV site, not removed; label: biotin linker S6 hybridised to overhang.
In the case of “CGAGACGGTTCCTTGAACATTAAACAAAAT / ATTTTGTTTAATGTTCAAGGAACCGTCTCGCCTACCCTACGTCCTCCTGC [O3205_LH_Δ6]”, the binding result is recorded as “binds”.

Still in this series, the particulars now being: RH boundary; SPR (ReDCaT, Biacore T200) in HBS-EP+: 10 mM HEPES pH 7.4, 150 mM NaCl, 3 mM EDTA, 0.05% P20, 20°C; recombinant protein; residues 1-163; protein details: N-terminal His tag plus TEV site, not removed; label: biotin linker S6 hybridised to overhang.
Take “ACTCCAATACTTGAACTCTCAATCTTTA / TAAAGATTGAGAGTTCAAGTATTGGAGTCCTACCCTACGTCCTCCTGC [O3204_RH_Δ8]”: the binding result is listed as “binds”.

For “ACGCCGATTTTGTTTAATGTTCAAGGAACC / GGTTCCTTGAACATTAAACAAAATCGGCGTCCTACCCTACGTCCTCCTGC [O3205_RH_Δ6]”, the binding result is recorded as “binds”.

The same series, now with this note: SPR (ReDCaT, Biacore T200) in HBS-EP+: 10 mM HEPES pH 7.4, 150 mM NaCl, 3 mM EDTA, 0.05% P20, 20°C; recombinant protein; residues 1-163; protein details: N-terminal His tag plus TEV site, not removed; label: biotin linker S6 hybridised to overhang.
On to “ACTCCAATACTTGAACTCTCAATC / GATTGAGAGTTCAAGTATTGGAGTCCTACCCTACGTCCTCCTGC [O3204_RH_Δ12]”, for which the binding result is “binds more weakly”.

For “ACGCCGATTTTGTTTAATGTTCAAGG / CCTTGAACATTAAACAAAATCGGCGTCCTACCCTACGTCCTCCTGC [O3205_RH_Δ10]”, the binding result was “binds more weakly”.

“ACGGCACGTAAAGATTGAGAGTTCAA / TTGAACTCTCAATCTTTACGTGCCGTCCTACCCTACGTCCTCCTGC [O3204_LH_Δ10]”: the binding result is given as “binds more weakly”.

Regarding “ACTCCAATACTTGAACTCTC / GAGAGTTCAAGTATTGGAGTCCTACCCTACGTCCTCCTGC [O3204_RH_Δ16]”, the binding result is “binds more weakly”.

On to “ACGCCGATTTTGTTTAATGTTCAAGGAACCGTCTCG / CGAGACGGTTCCTTGAACATTAAACAAAATCGGCGTCCTACCCTACGTCCTCCTGC [O3205_RH]”, for which the binding result is recorded as “binds”.

Take “ACTCCAATACTTGAACTCTCAA / TTGAGAGTTCAAGTATTGGAGTCCTACCCTACGTCCTCCTGC [O3204_RH_Δ14]”: the binding result is given as “binds more weakly”.

As to “ACGCCGATTTTGTTTAATGTTCAAGGAACCGTCT / AGACGGTTCCTTGAACATTAAACAAAATCGGCGTCCTACCCTACGTCCTCCTGC [O3205_RH_Δ2]”, the binding result is “binds”.

As for “ACTCCAATACTTGAACTCTCAATCTTTACG / CGTAAAGATTGAGAGTTCAAGTATTGGAGTCCTACCCTACGTCCTCCTGC [O3204_RH_Δ6]”, the binding result is reported as “binds”.

For “ACGGCACGTAAAGATTGAGAGTTC / GAACTCTCAATCTTTACGTGCCGTCCTACCCTACGTCCTCCTGC [O3204_LH_Δ12]”, the binding result is listed as “binds more weakly”.

On to “ACGGCACGTAAAGATTGAGAGTTCAAGTAT / ATACTTGAACTCTCAATCTTTACGTGCCGTCCTACCCTACGTCCTCCTGC [O3204_LH_Δ6]”, for which the binding result was “binds more weakly”.

Regarding “ACGGCACGTAAAGATTGAGAGTTCAAGTATTGGA / TCCAATACTTGAACTCTCAATCTTTACGTGCCGTCCTACCCTACGTCCTCCTGC [O3204_LH_Δ2]”, the binding result was “binds”.

As for “ACTCCAATACTTGAACTCTCAATCTTTACGTGCCGT / ACGGCACGTAAAGATTGAGAGTTCAAGTATTGGAGTCCTACCCTACGTCCTCCTGC [O3204_RH]”, the binding result is reported as “binds”.

Take “ACGCCGATTTTGTTTAATGTTCAAGGAACCGT / ACGGTTCCTTGAACATTAAACAAAATCGGCGTCCTACCCTACGTCCTCCTGC [O3205_RH_Δ4]”: the binding result is listed as “binds”.

For “CGAGACGGTTCCTTGAACATTAAACA / TGTTTAATGTTCAAGGAACCGTCTCGCCTACCCTACGTCCTCCTGC [O3205_LH_Δ10]”, the binding result is “binds more weakly”.

Consider “ACGGCACGTAAAGATTGAGAGT / ACTCTCAATCTTTACGTGCCGTCCTACCCTACGTCCTCCTGC [O3204_LH_Δ14]”, for which the binding result is given as “binds more weakly”.

Take “ACTCCAATACTTGAACTCTCAATCTTTACGTG / CACGTAAAGATTGAGAGTTCAAGTATTGGAGTCCTACCCTACGTCCTCCTGC [O3204_RH_Δ4]”: the binding result is “binds”.

As to “ACTCCAATACTTGAACTCTCAATCTTTACGTGCC / GGCACGTAAAGATTGAGAGTTCAAGTATTGGAGTCCTACCCTACGTCCTCCTGC [O3204_RH_Δ2]”, the binding result is given as “binds”.

Consider “ACGGCACGTAAAGATTGAGAGTTCAAGTATTGGAGT / ACTCCAATACTTGAACTCTCAATCTTTACGTGCCGTCCTACCCTACGTCCTCCTGC [O3204_LH]”, for which the binding result is “binds”.

The series is the same for the next values; noted with them: lower maximum, faster dissociation; SPR (ReDCaT, Biacore T200) in HBS-EP+: 10 mM HEPES pH 7.4, 150 mM NaCl, 3 mM EDTA, 0.05% P20, 20°C; recombinant protein; residues 1-163; protein details: N-terminal His tag plus TEV site, not removed; label: biotin linker S6 hybridised to overhang.
“ACGCCGATTTTGTTTAATGTTCAAGGAA / TTCCTTGAACATTAAACAAAATCGGCGTCCTACCCTACGTCCTCCTGC [O3205_RH_Δ8]”: the binding result is “binds more weakly”.

The same series, now with this note: maximum similar to Δ8, slightly faster dissociation; SPR (ReDCaT, Biacore T200) in HBS-EP+: 10 mM HEPES pH 7.4, 150 mM NaCl, 3 mM EDTA, 0.05% P20, 20°C; recombinant protein; residues 1-163; protein details: N-terminal His tag plus TEV site, not removed; label: biotin linker S6 hybridised to overhang.
In the case of “ACTCCAATACTTGAACTCTCAATCTT / AAGATTGAGAGTTCAAGTATTGGAGTCCTACCCTACGTCCTCCTGC [O3204_RH_Δ10]”, the binding result is listed as “binds”.

The series is the same for the next values; noted with them: steady-state 1:1 fit; SPR (ReDCaT, Biacore T200) in HBS-EP+: 10 mM HEPES pH 7.4, 150 mM NaCl, 3 mM EDTA, 0.05% P20, 20°C; recombinant protein; residues 1-163; protein details: N-terminal His tag plus TEV site, not removed; label: biotin linker S6 hybridised to overhang.
As a reminder, the Kd is the equilibrium constant for the complex coming apart. On to “CAATACTTGAACTCTCAATCTTTA / TAAAGATTGAGAGTTCAAGTATTGCCTACCCTACGTCCTCCTGC [O3204_24mer / O3204_WT]”, for which the dissociation constant Kd is 1.3 nM.
